Drawing on publication PMC11228364, this text covers binding for 2 substances.

Chains of the proteins cited; added tags and fusions are not shown. Lines headed by an entry give the natural chain unless they say otherwise; changes in a name come on top. A line that says so, or that is headed by a name, gives the form on record, which may keep a tag or linker.
UniProt Q6ZTA4: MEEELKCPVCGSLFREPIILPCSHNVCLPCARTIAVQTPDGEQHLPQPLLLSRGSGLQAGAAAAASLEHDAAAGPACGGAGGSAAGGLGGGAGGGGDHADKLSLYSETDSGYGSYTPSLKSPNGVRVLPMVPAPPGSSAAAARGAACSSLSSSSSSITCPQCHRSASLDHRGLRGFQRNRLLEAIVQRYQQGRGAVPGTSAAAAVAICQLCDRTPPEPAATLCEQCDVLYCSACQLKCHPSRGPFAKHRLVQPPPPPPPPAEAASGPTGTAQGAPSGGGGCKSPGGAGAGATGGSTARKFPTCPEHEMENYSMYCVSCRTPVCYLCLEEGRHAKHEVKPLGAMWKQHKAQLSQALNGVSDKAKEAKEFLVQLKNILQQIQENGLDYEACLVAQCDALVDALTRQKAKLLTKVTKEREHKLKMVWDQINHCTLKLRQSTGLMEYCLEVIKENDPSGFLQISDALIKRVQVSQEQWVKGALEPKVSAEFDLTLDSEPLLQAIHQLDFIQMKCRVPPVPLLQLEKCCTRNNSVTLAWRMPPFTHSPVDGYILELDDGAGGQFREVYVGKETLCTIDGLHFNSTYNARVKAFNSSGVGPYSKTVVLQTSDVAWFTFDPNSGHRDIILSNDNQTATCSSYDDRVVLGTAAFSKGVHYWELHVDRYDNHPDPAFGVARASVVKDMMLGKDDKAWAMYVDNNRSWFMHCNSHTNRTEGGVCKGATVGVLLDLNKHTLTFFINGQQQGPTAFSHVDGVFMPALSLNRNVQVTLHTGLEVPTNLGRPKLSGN
UniProt Q9Y5P6: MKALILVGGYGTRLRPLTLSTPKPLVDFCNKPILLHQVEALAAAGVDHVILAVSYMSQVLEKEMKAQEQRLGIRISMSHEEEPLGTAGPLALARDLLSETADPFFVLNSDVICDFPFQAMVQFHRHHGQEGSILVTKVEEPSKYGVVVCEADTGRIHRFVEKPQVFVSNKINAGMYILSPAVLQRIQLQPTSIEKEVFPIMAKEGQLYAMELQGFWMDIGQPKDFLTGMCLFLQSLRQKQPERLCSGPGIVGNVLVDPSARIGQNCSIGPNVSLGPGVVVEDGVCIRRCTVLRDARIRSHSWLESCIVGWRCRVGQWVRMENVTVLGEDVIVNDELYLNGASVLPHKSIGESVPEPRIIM
3xFLAG-GMPPB K143/162/195R (Q9Y5P6, form named): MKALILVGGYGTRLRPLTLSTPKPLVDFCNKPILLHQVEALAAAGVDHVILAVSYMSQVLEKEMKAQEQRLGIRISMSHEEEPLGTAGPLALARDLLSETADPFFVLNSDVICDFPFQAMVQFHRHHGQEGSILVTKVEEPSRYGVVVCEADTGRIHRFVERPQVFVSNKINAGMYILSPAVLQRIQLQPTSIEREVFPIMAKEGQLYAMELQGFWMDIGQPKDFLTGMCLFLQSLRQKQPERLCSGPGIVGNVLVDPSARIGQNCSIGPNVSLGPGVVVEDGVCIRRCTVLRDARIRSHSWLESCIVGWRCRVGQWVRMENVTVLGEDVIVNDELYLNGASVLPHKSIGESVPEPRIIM

In test [1] the target is HA-TRIM67 (E3 ubiquitin ligase TRIM67) (UniProt Q6ZTA4). The test can be described thus: co-IP; HEK-293 T cells transfected with FLAG3-GMPPB and HA-TRIM67; immunoprecipitation of HA-TRIM67, Western blot for FLAG. On the technique in general: A western blot detects proteins with antibodies after separation by electrophoresis.
Test [2] deals with 3xFLAG-GMPPB K143/162/195R (human) (UniProt Q9Y5P6). The test can be described thus: co-IP; HEK-293 T cells co-transfected with HA-TRIM67 and FLAG3-GMPPB WT or 3KR; IP with anti-FLAG M2 antibodies coupled to Protein A Sepharose, 4°C 2 h, imidazole lysis buffer (150 mM NaCl, 0.25% Triton X-100); Western blot for HA.
In test [3] the target is 3xFLAG-GMPPB (GDP-mannose pyrophosphorylase B), wild type (human) (UniProt Q9Y5P6). The test is described as above.

No constants are given. Whether binding was seen depends on the method and setting. Binding seen in cells or lysates may run through a third protein. Some entries that bind do so weakly or less than the wild type.

“3xFLAG-GMPPB (GDP-mannose pyrophosphorylase B), wild type (from UniProt Q9Y5P6 1-360) (enzyme)”: the binding entry in test [1] is “binds”.

As to “HA-TRIM67 (E3 ubiquitin ligase TRIM67) (from UniProt Q6ZTA4 1-783) (enzyme)”, the binding entry in test [2] and in test [3] was “binds” in each case.
